Results on 4 substances are retold here after article PMC9954792.

Amino acid sequences for entries named in this document (tags omitted). A change or cut given only in a name is not applied to a line headed by its entry. Residues count along the entry.
UniProt P49841: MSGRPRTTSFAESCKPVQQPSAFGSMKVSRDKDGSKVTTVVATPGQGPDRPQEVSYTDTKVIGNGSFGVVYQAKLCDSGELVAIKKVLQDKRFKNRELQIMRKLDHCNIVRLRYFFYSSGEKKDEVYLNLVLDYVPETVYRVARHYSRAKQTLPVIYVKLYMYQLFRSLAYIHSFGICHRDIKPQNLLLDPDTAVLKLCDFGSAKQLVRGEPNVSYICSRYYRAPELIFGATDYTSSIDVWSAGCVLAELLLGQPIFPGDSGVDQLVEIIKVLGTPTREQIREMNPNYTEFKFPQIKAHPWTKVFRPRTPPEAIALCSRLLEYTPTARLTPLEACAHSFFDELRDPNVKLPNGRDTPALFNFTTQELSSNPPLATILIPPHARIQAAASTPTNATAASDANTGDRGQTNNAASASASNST
UniProt P02545: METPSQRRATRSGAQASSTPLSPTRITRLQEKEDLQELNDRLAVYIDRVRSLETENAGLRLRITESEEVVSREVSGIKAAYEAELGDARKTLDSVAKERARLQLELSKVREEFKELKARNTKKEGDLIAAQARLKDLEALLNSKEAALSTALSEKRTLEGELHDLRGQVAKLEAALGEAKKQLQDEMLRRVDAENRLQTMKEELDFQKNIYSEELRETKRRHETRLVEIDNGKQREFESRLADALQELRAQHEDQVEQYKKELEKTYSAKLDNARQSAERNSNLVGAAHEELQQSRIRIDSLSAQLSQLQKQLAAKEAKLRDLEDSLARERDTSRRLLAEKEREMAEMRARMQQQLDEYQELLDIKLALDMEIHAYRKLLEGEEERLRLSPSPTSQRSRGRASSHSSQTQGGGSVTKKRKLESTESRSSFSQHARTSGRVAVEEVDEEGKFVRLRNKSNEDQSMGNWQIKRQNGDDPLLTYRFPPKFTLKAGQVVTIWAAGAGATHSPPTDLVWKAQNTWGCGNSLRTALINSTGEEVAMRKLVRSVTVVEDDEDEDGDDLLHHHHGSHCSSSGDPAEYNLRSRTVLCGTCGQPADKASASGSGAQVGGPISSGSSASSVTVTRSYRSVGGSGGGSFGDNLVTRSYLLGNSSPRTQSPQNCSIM
GST fusion of truncated lamin A, C-terminal domain (amino acids 384-646): residues 384-646 of P02545
UniProt P68400: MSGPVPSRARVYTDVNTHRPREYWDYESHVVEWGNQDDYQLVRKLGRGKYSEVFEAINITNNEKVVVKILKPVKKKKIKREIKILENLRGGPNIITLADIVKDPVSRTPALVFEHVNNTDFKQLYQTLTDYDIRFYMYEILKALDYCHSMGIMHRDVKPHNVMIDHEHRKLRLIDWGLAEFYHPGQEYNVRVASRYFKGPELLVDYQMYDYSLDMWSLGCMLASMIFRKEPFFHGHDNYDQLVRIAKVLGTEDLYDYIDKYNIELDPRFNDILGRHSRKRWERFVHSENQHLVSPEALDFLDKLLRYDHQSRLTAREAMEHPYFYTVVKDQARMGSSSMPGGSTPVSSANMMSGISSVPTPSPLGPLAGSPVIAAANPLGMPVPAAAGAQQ

The target in experiment [1] is HA-GSK3β (UniProt P49841). As to the kind of experiment: co-IP; 293T cells (HEK293 in the legends) co-transfected with tagged constructs; IP with anti-HA or anti-FLAG antibody; lysis buffer 20 mM Tris-HCl pH 7.5, 250 mM NaCl, 0.1 mM EDTA, 10% glycerol, 0.1% NP-40; 4 °C overnight; Western blot. (A western blot detects proteins with antibodies after separation by electrophoresis.)

Experiment [2] addresses GST fusion of full-length lamin A (amino acids 1-646) (UniProt P02545). Put plainly: pull-down; 1 µg GST fusion protein immobilised on Glutathione Sepharose 4B beads, incubated with 6× His-tagged GSK3β at 4 °C overnight in 50 mM Tris-HCl pH 7.5, 0.2 mM EDTA, 150 mM NaCl, 0.1% NP-40; four washes; Western blot; both purified.
Experiment [3] deals with GST fusion of truncated lamin A, C-terminal domain (amino acids 384-646) (UniProt P02545). The experiment is described as above.
Experiment [4] has as its target FLAG-lamin A (UniProt P02545). As to the kind of experiment: co-IP; 293T cells (HEK293 in the legends) co-transfected with tagged constructs; IP with anti-HA or anti-FLAG antibody; lysis buffer 20 mM Tris-HCl pH 7.5, 250 mM NaCl, 0.1 mM EDTA, 10% glycerol, 0.1% NP-40; 4 °C overnight; Western blot.

Results are given in words; binding and its absence hold for the method and conditions named. For some assays here: Binding seen in cells or lysates may run through a third protein. Some binding calls cover weakened binding; strength is not graded here.

For “FLAG-lamin A (from UniProt P02545 1-646)”, the binding result in experiment [1] is on record as “binds”.
As for “6× His-tagged GSK3β (from UniProt P49841 1-420) (enzyme)”, the binding result in experiment [2] and in experiment [3] was “binds” in each case.
As for “HA-GSK3β (from UniProt P49841 1-420) (enzyme)”, in experiment [4], the binding result was “binds”.
The same measure, in the same setting: next, “HA-CK2α (from UniProt P68400 1-391) (enzyme)”: “binds”.
